Measured values taken from patent publication US4469706A, “Selective beta-2 adrenergic antagonists for the treatment of glaucoma” (priority 1982, dated 1984).
For at least one compound, name, drawing or mass did not settle the structure.

Tests used:
[1] = system: rabbit ciliary process adenylate cyclase; assay: Rabbit ciliary process beta-adrenergic sensitive adenylate cyclase activity; assay type: biochemical; details: Table I columns B (rabbit ciliary process) and G
heart adenylate cyclase = assay: Heart adenylate cyclase activation and inhibition; assay type: biochemical, mammalian; details: antagonists; Table I; ** data from the present inventor, method (a); read-out: Adenylate Cyclase Ki, Heart (G)
intraocular tension = details: adult female cats; Colasanti and Trotter 1979; cited from earlier work

Cc1ccc(C(O)C(C)NC(C)C)cc1 (stereo not drawn) [H35/25, 1(4'-methylphenyl)-2-isopropyl amino propanol]
β2/β1 potency ratio (Ki heart/Ki ciliary process) [1]: 9.3
Ki (heart adenylate cyclase): 6.5 µM
Maximal reduction of intraocular tension (intraocular tension): about the same maximal reduction as timolol
